Consider three substances from article PMC11255299.

Amino acid sequences for entries named in this document (tags omitted). A change or cut given only in a name is not applied to a line headed by its entry.
UniProt Q08211: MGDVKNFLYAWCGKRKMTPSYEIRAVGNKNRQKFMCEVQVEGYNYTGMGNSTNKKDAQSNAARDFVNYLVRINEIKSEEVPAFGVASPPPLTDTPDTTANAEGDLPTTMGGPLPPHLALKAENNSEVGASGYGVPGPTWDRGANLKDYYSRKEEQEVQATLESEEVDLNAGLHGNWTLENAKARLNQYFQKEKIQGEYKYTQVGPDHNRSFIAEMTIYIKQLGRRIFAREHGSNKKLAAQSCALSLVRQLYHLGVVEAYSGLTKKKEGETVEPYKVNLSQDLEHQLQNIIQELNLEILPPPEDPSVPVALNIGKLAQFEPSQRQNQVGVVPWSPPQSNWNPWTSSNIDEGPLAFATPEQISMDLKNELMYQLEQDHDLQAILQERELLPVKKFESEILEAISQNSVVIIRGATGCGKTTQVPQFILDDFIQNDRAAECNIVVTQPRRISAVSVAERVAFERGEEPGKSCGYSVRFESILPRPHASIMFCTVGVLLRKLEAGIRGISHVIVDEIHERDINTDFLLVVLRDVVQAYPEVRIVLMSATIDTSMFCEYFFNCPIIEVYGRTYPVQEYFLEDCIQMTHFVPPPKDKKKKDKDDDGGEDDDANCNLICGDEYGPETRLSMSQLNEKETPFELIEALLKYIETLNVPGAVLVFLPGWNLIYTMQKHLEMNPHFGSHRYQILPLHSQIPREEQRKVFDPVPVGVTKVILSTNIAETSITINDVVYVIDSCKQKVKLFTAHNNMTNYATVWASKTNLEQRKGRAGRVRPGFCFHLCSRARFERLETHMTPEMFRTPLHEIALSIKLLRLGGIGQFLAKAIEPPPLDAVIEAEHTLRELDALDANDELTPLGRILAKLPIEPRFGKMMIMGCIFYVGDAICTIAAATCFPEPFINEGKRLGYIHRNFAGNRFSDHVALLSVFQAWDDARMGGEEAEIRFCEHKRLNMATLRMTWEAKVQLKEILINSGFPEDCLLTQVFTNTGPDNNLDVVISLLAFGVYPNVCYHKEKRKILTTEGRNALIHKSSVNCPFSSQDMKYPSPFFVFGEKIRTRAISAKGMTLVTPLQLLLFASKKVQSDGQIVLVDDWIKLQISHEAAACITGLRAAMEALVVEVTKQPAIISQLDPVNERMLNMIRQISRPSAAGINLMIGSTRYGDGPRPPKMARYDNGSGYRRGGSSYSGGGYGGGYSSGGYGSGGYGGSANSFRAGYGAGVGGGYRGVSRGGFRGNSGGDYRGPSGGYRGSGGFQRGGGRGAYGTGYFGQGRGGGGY
UniProt P09874: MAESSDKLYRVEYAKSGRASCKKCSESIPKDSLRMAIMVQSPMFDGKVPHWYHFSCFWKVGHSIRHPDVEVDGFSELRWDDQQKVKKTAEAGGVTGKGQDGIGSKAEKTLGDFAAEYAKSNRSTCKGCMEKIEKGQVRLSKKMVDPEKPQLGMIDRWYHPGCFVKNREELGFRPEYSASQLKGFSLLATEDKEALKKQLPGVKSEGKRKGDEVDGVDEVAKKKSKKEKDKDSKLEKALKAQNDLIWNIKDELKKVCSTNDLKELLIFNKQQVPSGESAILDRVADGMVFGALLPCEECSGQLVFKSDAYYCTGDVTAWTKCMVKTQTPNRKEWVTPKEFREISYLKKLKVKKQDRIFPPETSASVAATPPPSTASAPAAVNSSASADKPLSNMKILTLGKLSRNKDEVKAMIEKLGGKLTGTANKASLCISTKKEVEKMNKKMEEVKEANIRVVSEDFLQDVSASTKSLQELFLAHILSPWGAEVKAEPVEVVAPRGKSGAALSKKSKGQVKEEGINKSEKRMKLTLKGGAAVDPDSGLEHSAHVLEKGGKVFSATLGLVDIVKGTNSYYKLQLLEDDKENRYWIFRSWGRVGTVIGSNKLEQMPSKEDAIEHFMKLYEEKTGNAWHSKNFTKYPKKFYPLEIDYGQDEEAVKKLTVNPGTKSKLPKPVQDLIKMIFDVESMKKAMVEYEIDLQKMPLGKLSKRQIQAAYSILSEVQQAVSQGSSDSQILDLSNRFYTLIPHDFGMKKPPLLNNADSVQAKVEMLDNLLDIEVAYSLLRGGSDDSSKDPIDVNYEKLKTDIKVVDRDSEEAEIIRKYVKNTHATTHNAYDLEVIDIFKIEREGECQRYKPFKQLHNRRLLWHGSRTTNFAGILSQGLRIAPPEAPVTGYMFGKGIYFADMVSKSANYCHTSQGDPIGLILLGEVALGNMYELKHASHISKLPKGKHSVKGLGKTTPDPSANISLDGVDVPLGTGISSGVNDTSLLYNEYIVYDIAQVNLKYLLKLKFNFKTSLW
UniProt O75533: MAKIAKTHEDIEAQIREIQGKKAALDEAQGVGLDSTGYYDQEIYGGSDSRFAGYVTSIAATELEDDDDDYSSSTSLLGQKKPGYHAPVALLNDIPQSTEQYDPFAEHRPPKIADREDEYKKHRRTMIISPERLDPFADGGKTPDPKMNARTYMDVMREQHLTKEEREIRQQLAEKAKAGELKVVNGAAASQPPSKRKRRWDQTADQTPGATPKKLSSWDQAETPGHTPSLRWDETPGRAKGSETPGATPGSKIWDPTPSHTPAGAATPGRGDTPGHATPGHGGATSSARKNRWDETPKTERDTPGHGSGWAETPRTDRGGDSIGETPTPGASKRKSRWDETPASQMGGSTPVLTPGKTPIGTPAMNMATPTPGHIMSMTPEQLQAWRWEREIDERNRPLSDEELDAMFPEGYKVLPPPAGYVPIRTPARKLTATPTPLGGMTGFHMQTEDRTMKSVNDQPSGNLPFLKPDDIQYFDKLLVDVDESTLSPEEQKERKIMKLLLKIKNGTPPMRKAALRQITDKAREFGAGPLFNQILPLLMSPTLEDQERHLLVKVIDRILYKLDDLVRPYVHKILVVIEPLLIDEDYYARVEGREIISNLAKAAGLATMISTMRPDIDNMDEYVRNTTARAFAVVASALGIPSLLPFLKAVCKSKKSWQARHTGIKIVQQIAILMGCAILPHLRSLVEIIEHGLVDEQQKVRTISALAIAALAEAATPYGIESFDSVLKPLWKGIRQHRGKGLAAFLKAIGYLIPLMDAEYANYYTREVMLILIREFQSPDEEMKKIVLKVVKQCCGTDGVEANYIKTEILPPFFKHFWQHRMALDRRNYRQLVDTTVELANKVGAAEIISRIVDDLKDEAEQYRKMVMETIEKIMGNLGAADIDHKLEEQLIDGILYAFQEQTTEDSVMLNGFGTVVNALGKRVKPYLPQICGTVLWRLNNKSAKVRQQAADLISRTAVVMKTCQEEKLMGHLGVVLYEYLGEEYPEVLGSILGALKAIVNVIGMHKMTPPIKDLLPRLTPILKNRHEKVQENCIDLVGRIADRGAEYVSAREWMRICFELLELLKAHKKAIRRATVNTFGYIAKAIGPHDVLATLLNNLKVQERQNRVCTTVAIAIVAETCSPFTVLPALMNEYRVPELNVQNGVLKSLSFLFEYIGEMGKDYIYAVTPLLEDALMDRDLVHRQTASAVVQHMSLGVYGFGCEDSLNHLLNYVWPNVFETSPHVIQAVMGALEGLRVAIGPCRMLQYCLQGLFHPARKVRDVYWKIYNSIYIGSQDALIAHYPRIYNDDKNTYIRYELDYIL
UniProt P61956: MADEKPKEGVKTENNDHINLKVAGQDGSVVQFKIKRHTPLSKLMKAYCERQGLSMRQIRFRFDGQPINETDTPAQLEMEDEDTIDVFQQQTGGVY

Results are given in words; binding and its absence hold for the method and conditions named. Binding seen in cells or lysates may run through a third protein. Some binding calls cover weakened binding; strength is not graded here. For part of these data: Sequences can lack the tags named with a protein.

Experiment [1] addresses SFB-DHX9^K76R (human) (UniProt Q08211). As to the kind of experiment: pull-down; SFB-DHX9 variants in lysates of transfected HeLa cells (NETN buffer: 20 mM Tris-HCl pH 8.0, 0.5 mM EDTA, 150 mM NaCl, 0.5% Igepal, 10% glycerol, 15 mM NEM) captured on Dynabeads M-280 streptavidin, 4 °C, 4 h; endogenous partners by Western blot. (In general: In western blotting, separated proteins are transferred to a membrane and probed.)

Experiment [2] concerns the target SFB-DHX9^WT (human) (UniProt Q08211). As to the kind of experiment: pull-down; as a1, lysates (text: nuclear extracts) treated with RNase A (20 μg/mL) before SFB-tag pull-down.
Experiment [3] has the same target. Nature of the experiment: pull-down; SFB-DHX9 variants in lysates of transfected HeLa cells (NETN buffer: 20 mM Tris-HCl pH 8.0, 0.5 mM EDTA, 150 mM NaCl, 0.5% Igepal, 10% glycerol, 15 mM NEM) captured on Dynabeads M-280 streptavidin, 4 °C, 4 h; endogenous partners by Western blot.
The target of experiment [4] is T1, HA-DDX21^WT (human) (UniProt Q9NR30).
T1 sequence: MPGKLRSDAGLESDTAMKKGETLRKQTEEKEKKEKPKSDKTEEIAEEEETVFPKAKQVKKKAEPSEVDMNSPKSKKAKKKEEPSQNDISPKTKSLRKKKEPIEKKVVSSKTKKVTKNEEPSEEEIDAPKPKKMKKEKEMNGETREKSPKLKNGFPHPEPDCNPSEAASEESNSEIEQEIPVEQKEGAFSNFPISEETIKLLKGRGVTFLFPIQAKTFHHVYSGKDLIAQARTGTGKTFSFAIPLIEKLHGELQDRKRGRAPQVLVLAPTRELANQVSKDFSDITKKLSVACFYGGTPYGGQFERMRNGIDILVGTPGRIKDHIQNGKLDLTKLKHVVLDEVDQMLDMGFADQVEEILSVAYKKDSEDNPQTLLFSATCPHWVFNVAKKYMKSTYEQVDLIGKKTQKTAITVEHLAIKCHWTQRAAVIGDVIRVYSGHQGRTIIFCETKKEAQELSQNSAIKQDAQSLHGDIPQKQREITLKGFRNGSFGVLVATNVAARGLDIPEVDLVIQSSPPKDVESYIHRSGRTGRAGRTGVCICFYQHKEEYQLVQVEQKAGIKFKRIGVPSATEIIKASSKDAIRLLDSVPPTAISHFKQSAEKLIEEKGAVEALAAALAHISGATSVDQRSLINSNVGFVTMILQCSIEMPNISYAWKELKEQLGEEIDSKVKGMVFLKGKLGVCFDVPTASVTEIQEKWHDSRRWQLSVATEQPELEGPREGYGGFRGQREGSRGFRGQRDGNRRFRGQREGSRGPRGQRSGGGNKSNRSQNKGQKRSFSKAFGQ
Nature of the experiment: co-IP; HA affinity purification (anti-HA beads, room temperature, 1 h, NETN buffer) of HA-PARP1 or HA-DDX21 variants from transfected HeLa cells; DHX9 variants by Western blot.

The target in experiment [5] is HA-PARP1^WT (human) (UniProt P09874). The experiment is described as above.

Regarding PARP1 (from UniProt P09874 1-1014), the binding entry in experiment [1] is reported as “binds”.
In the case of SF3B1 (from UniProt O75533 1-1304), the binding result in experiment [2], in experiment [1] and in experiment [3] was “binds” each time.
On to “SUMO2-DHX9^K120R (from UniProt P61956 12-91; Q08211 1-1270)”, for which the binding result in experiment [4] and in experiment [5] was “binds” each time.
